{"source": "the supplement of paper PMC8728848", "assay_in_all_cases": "glycan array binding signal (z-score within array); higher = stronger binding", "settings_in_all_cases": "glycan notation: IUPAC condensed, linker removed", "key": {"[1]": {"biological_target": "Neu5Ac(a2-3)Gal(b1-3)GlcNAc(b1-6)GalNAc", "how_it_was_run": "(§1)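 From the Consortium for Functional Glycomics database, 3228 arrays were curated, keeping only those whose protein sequence was available. Binding is given as a within-array Z-score averaged across arrays sharing a protein sequence and across linkers. Negative Z-scores can be read as non-binding.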"}, "[2]": {"biological_target": "Neu5Ac(a2-3)Gal(b1-3)GlcNAc6S", "how_it_was_run": "as §1"}, "[3]": {"biological_target": "Neu5Ac(a2-3)Gal(b1-3)[Fuc(a1-4)]GlcNAc", "how_it_was_run": "as §1"}, "[4]": {"biological_target": "Neu5Ac(a2-3)Gal(b1-3)[Fuc(a1-4)]GlcNAc(b1-3)Gal(b1-3)[Fuc(a1-4)]GlcNAc", "how_it_was_run": "as §1"}, "[5]": {"biological_target": "Neu5Ac(a2-3)Gal(b1-3)[Fuc(a1-4)]GlcNAc(b1-3)Gal(b1-4)[Fuc(a1-3)]GlcNAc", "how_it_was_run": "as §1"}, "[6]": {"biological_target": "Neu5Ac(a2-3)Gal(b1-3)[GlcNAc(b1-6)]GalNAc", "how_it_was_run": "as §1"}, "[7]": {"biological_target": "Neu5Ac(a2-3)Gal(b1-3)[Neu5Ac(a2-6)]GalNAc", "how_it_was_run": "as §1"}, "[8]": {"biological_target": "Neu5Ac(a2-3)Gal(b1-3)[Neu5Ac(a2-6)]GlcNAc(b1-3)[Fuc(a1-3)[Gal(b1-4)]GlcNAc(b1-6)]Gal(b1-4)Glc", "how_it_was_run": "as §1"}, "[9]": {"biological_target": "Neu5Ac(a2-3)Gal(b1-3)]Neu5Ac(a2-3)Gal(b1-4)]GlcNAc", "how_it_was_run": "as §1"}, "Neu5Ac(a2-3)Gal(b1-4)Glc": {"biological_target": "Neu5Ac(a2-3)Gal(b1-4)Glc", "how_it_was_run": "as §1"}, "[10]": {"biological_target": "Neu5Ac(a2-3)Gal(b1-4)GlcNAc", "how_it_was_run": "as §1"}, "[11]": {"biological_target": "Neu5Ac(a2-3)Gal(b1-4)GlcNAc(b1-2)Man", "how_it_was_run": "as §1"}, "[12]": {"biological_target": "Neu5Ac(a2-3)Gal(b1-4)GlcNAc(b1-2)Man(a1-3)[GlcNAc(b1-4)][Neu5Ac(a2-3)Gal(b1-4)GlcNAc(b1-2)Man(a1-6)]Man(b1-4)GlcNAc(b1-4)GlcNAc", "how_it_was_run": "as §1"}, "[13]": {"biological_target": "Neu5Ac(a2-3)Gal(b1-4)GlcNAc(b1-2)Man(a1-3)[Neu5Ac(a2-3)Gal(b1-4)GlcNAc(b1-2)Man(a1-6)]Man(b1-4)GlcNAc(b1-4)GlcNAc", "how_it_was_run": "as §1"}, "[14]": {"biological_target": "Neu5Ac(a2-3)Gal(b1-4)GlcNAc(b1-2)Man(a1-3)[Neu5Ac(a2-3)Gal(b1-4)GlcNAc(b1-2)Man(a1-6)]Man(b1-4)GlcNAc(b1-4)[Fuc(a1-6)]GlcNAc", "how_it_was_run": "as §1"}, "[15]": {"biological_target": "Neu5Ac(a2-3)Gal(b1-4)GlcNAc(b1-2)Man(a1-3)[Neu5Ac(a2-6)Gal(b1-4)GlcNAc(b1-2)Man(a1-6)]Man(b1-4)GlcNAc(b1-4)GlcNAc", "how_it_was_run": "as §1"}, "[16]": {"biological_target": "Neu5Ac(a2-3)Gal(b1-4)GlcNAc(b1-2)[Neu5Ac(a2-3)Gal(b1-4)GlcNAc(b1-4)]Man(a1-3)[GlcNAc(b1-4)][Neu5Ac(a2-3)Gal(b1-4)GlcNAc(b1-2)[Neu5Ac(a2-3)Gal(b1-4)GlcNAc(b1-6)]Man(a1-6)]Man(b1-4)GlcNAc(b1-4)GlcNAc", "how_it_was_run": "as §1"}, "[17]": {"biological_target": "Neu5Ac(a2-3)Gal(b1-4)GlcNAc(b1-2)[Neu5Ac(a2-3)Gal(b1-4)GlcNAc(b1-4)]Man(a1-3)[GlcNAc(b1-4)][Neu5Ac(a2-3)Gal(b1-4)GlcNAc(b1-4)Man(a1-6)]Man(b1-4)GlcNAc(b1-4)GlcNAc", "how_it_was_run": "as §1"}, "[18]": {"biological_target": "Neu5Ac(a2-3)Gal(b1-4)GlcNAc(b1-2)[Neu5Ac(a2-3)Gal(b1-4)GlcNAc(b1-6)]Man(a1-6)[Neu5Ac(a2-3)Gal(b1-4)GlcNAc(b1-2)Man(a1-3)][GlcNAc(b1-4)]Man(b1-4)GlcNAc(b1-4)GlcNAc", "how_it_was_run": "as §1"}, "[19]": {"biological_target": "Neu5Ac(a2-3)Gal(b1-4)GlcNAc(b1-3)Gal", "how_it_was_run": "as §1"}, "[20]": {"biological_target": "Neu5Ac(a2-3)Gal(b1-4)GlcNAc(b1-3)Gal(b1-3)GlcNAc", "how_it_was_run": "as §1"}, "[21]": {"biological_target": "Neu5Ac(a2-3)Gal(b1-4)GlcNAc(b1-3)Gal(b1-4)GlcNAc", "how_it_was_run": "as §1"}, "[22]": {"biological_target": "Neu5Ac(a2-3)Gal(b1-4)GlcNAc(b1-3)Gal(b1-4)GlcNAc(b1-2)Man(a1-3)[Neu5Ac(a2-3)Gal(b1-4)GlcNAc(b1-3)Gal(b1-4)GlcNAc(b1-2)Man(a1-6)]Man(b1-4)GlcNAc(b1-4)GlcNAc", "how_it_was_run": "as §1"}, "[23]": {"biological_target": "Neu5Ac(a2-3)Gal(b1-4)GlcNAc(b1-3)Gal(b1-4)GlcNAc(b1-3)Gal(b1-4)GlcNAc", "how_it_was_run": "as §1"}, "[24]": {"biological_target": "Neu5Ac(a2-3)Gal(b1-4)GlcNAc(b1-3)Gal(b1-4)GlcNAc(b1-3)Gal(b1-4)GlcNAc(b1-2)Man(a1-3)[Neu5Ac(a2-3)Gal(b1-4)GlcNAc(b1-3)Gal(b1-4)GlcNAc(b1-3)Gal(b1-4)GlcNAc(b1-2)Man(a1-6)]GalNAc", "how_it_was_run": "as §1"}, "[25]": {"biological_target": "Neu5Ac(a2-3)Gal(b1-4)GlcNAc(b1-3)Gal(b1-4)GlcNAc(b1-3)GalNAc", "how_it_was_run": "as §1"}, "[26]": {"biological_target": "Neu5Ac(a2-3)Gal(b1-4)GlcNAc(b1-3)Gal(b1-4)GlcNAc(b1-3)[Neu5Ac(a2-3)Gal(b1-4)GlcNAc(b1-3)Gal(b1-4)GlcNAc(b1-6)]GalNAc", "how_it_was_run": "as §1"}, "[27]": {"biological_target": "Neu5Ac(a2-3)Gal(b1-4)GlcNAc(b1-3)Gal(b1-4)GlcNAc(b1-6)[Gal(b1-3)]GalNAc", "how_it_was_run": "as §1"}, "[28]": {"biological_target": "Neu5Ac(a2-3)Gal(b1-4)GlcNAc(b1-3)Gal(b1-4)[Fuc(a1-3)]GlcNAc", "how_it_was_run": "as §1"}, "[29]": {"biological_target": "Neu5Ac(a2-3)Gal(b1-4)GlcNAc(b1-3)GalNAc", "how_it_was_run": "as §1"}}, "note": "The list shows a part of the results.", "data": [{"binder": "SHCBP1-GST (Homo sapiens), Q8NEM2 (protein) MADGSLTGGGLEAAAMAPERMGWAVEQELASLEKGLFQDEDSCSDCSYRDKPGSSLQSFMPEGKTFFPEIFQTNQLLFYERFRAYQDYILADCKASEVQEFTAEFLEKVLEPSGWRAVWHTNVFKVLVEITDVDFAALKAVVRLAEPYLCDSQVSTFTMECMKELLDLKEHRLPLQELWVVFDDSGVFDQTALAIEHVRFFYQNIWRSWDEEEEDEYDYFVRCVEPRLRLHYDILEDRVPSGLIVDYHNLLSQCEESYRKFLNLRSSLSNCNSDSEQENISMVEGLKLYSEMEQLKQKLKLIENPLLRYVFGYQKNSNIQAKGVRSSGQKITHVVSSTMMAGLLRSLLTDRLCQEPGEEEREIQFHSDPLSAINACFEGDTVIVCPGHYVVHGTFSIADSIELEGYGLPDDIVIEKRGKGDTFVDCTGADIKISGIKFVQHDAVEGILIVHRGKTTLENCVLQCETTGVTVRTSAEFLMKNSDLYGAKGAGIEIYPGSQCTLSDNGIHHCKEGILIKDFLDEHYDIPKISMVNNIIHNNEGYGVVLVKPTIFSDLQENAEDGTEENKALKIQTSGEPDVAERVDLEELIECATGKMELCARTDPSEQVEGNCEIVNELIAASTQKGQIKKKRLSELGITQADDNLMSQEMFVGIVGNQFKWNGKGSFGTFLF", "values": [{"measurement": "glycan array binding signal (z-score)", "setting": "[1]", "value": 0.684}, {"measurement": "glycan array binding signal (z-score)", "setting": "[2]", "value": -0.441}, {"measurement": "glycan array binding signal (z-score)", "setting": "[3]", "value": -0.231}, {"measurement": "glycan array binding signal (z-score)", "setting": "[4]", "value": -0.62}, {"measurement": "glycan array binding signal (z-score)", "setting": "[5]", "value": -0.008}, {"measurement": "glycan array binding signal (z-score)", "setting": "[6]", "value": -0.95}, {"measurement": "glycan array binding signal (z-score)", "setting": "[7]", "value": 0.186}, {"measurement": "glycan array binding signal (z-score)", "setting": "[8]", "value": 0.123}, {"measurement": "glycan array binding signal (z-score)", "setting": "[9]", "value": -0.285}, {"measurement": "glycan array binding signal (z-score)", "setting": "Neu5Ac(a2-3)Gal(b1-4)Glc", "value": -0.288}, {"measurement": "glycan array binding signal (z-score)", "setting": "[10]", "value": -0.2}, {"measurement": "glycan array binding signal (z-score)", "setting": "[11]", "value": 1.96}, {"measurement": "glycan array binding signal (z-score)", "setting": "[12]", "value": 1.37}, {"measurement": "glycan array binding signal (z-score)", "setting": "[13]", "value": -0.159}, {"measurement": "glycan array binding signal (z-score)", "setting": "[14]", "value": 0.338}, {"measurement": "glycan array binding signal (z-score)", "setting": "[15]", "value": 0.025}, {"measurement": "glycan array binding signal (z-score)", "setting": "[16]", "value": -0.705}, {"measurement": "glycan array binding signal (z-score)", "setting": "[17]", "value": 0.188}, {"measurement": "glycan array binding signal (z-score)", "setting": "[18]", "value": 0.412}, {"measurement": "glycan array binding signal (z-score)", "setting": "[19]", "value": -0.807}, {"measurement": "glycan array binding signal (z-score)", "setting": "[20]", "value": -1.03}, {"measurement": "glycan array binding signal (z-score)", "setting": "[21]", "value": 0.853}, {"measurement": "glycan array binding signal (z-score)", "setting": "[22]", "value": 0.273}, {"measurement": "glycan array binding signal (z-score)", "setting": "[23]", "value": -0.042}, {"measurement": "glycan array binding signal (z-score)", "setting": "[24]", "value": 1.68}, {"measurement": "glycan array binding signal (z-score)", "setting": "[25]", "value": -0.015}, {"measurement": "glycan array binding signal (z-score)", "setting": "[26]", "value": -0.513}, {"measurement": "glycan array binding signal (z-score)", "setting": "[27]", "value": -0.09}, {"measurement": "glycan array binding signal (z-score)", "setting": "[28]", "value": -0.503}, {"measurement": "glycan array binding signal (z-score)", "setting": "[29]", "value": 0.123}]}]}
